System: proteins in oral lavage
Experiment: Abundance of proteins in human oral lavage (SomaLogic), TABLE 1
Assay type: in vivo
Conditions: for Means (Original Scale) High bleeder BL: high bleeders (gingivitis); for Means (Original Scale) High bleeder BL / Means (Original Scale) Low bleeder BL: baseline; for Means (Original Scale) Low bleeder BL: low bleeders (healthy); for Fold Change High bleeder BL vs Low bleeder BL / Fold Change High bleeder W4 vs High bleeder BL: oral lavage
[1] = abundance in oral lavage, high bleeders, week 4 of investigative products
[2] = high bleeders vs low bleeders at baseline
[3] = week 4 of investigative products vs baseline, high bleeders
[4] = high bleeders, week 4 of treatment vs baseline
[5] = high vs low bleeders at baseline

Substance	Means (Original Scale) High bleeder BL (abundance in oral lavage)	Means (Original Scale) High bleeder W4 [1]	Means (Original Scale) Low bleeder BL (abundance in oral lavage)	Fold Change High bleeder BL vs Low bleeder BL [2]	Fold Change High bleeder W4 vs High bleeder BL [3]	Fold Change High bleeder W4 vs High bleeder BL [4]	Fold Change High bleeder BL vs Low bleeder BL [5]	Means (Original Scale) High bleeder W4 (in vivo, po)
Integrin alpha-I: beta-1 complex	11211	6351	948	6.43	0.58	–	–	–
Heat shock protein HSP 90-beta	114383	53401	13991	11.49	0.61	–	–	–
Proteasome subunit alpha type-6	392	224	139	–	–	0.65	2.77	–
Galectin-10	349	146	75	3.52	0.49	–	–	–
Galectin-7	697	435	219	2.83	0.68	–	–	–
Alpha-1-antitrypsin	3598	1784	1399	2.26	0.62	–	–	–
Mitogen-activated protein kinase 1	1159	457	129	6.92	0.65	–	–	–
Clusterin	1890	1193	340	4.12	0.65	–	–	–
Glyceraldehyde-3-phosphate dehydrogenase	106769	85859	12144	14.20	0.44	–	–	–
Leptin	952	526	179	4.44	0.61	–	–	–
Proteasome activator complex subunit 3	180	96	84	–	–	0.64	1.85	–
Vitamin K-dependent protein S	26044	11517	3768	–	–	0.49	5.90	–
Collagen alpha-1(XXIII) chain	289	174	106	2.61	0.64	–	–	–
Interleukin-1 alpha	1989	1071	1194	1.86	0.51	–	–	–
Tenascin	11450	4204	1484	–	–	0.59	6.06	–
C-X-C motif chemokine 6	132	45	26	2.45	0.63	–	–	–
Ribosomal protein S6 kinase alpha-5	27	18	12	–	–	0.73	2.12	–
Latent-transforming growth factor beta-binding protein 4	3512	1923	770	4.42	0.57	–	–	–
Ubiquitin carboxyl-terminal hydrolase isozyme L1	8790	4911	2687	–	–	0.62	3.47	–
Parathyroid hormone	97	58	32	–	–	0.67	2.54	–

Substance	Means (Original Scale) High bleeder BL (abundance in oral lavage)	Means (Original Scale) High bleeder W4 [1]	Means (Original Scale) Low bleeder BL (abundance in oral lavage)	Fold Change High bleeder BL vs Low bleeder BL [2]	Fold Change High bleeder W4 vs High bleeder BL [3]	Fold Change High bleeder W4 vs High bleeder BL [4]	Fold Change High bleeder BL vs Low bleeder BL [5]	Means (Original Scale) High bleeder W4 (in vivo, po)
Growth-regulated alpha protein	3896	649	270	5.15	0.48	–	–	–
Growth/differentiation factor 5	511	423	260	1.89	0.80	–	–	–
Interferon gamma	658	263	87	5.99	0.53	–	–	–
Mitogen-activated protein kinase 3	2149	953	305	6.58	0.62	–	–	–
Plasma kallikrein	46557	15193	4040	–	–	0.73	9.09	–
Epiregulin	923	545	365	2.08	0.68	–	–	–
Triosephosphate isomerase	199036	137411	13987	–	–	0.63	15.87	–
Somatostatin-28	171	–	48	–	–	0.65	3.00	96
Ubiquitin-fold modifier-conjugating enzyme 1	7435	3140	2760	–	–	0.48	2.23	–
Dual specificity mitogen-activated protein kinase kinase 1	96	69	34	2.47	0.74	–	–	–
Fatty acid-binding protein, heart	6011	3062	3121	2.38	0.53	–	–	–
Stress-induced-phosphoprotein 1	16420	9806	4297	–	–	0.53	5.59	–
Thrombospondin-4	1702	608	235	–	–	0.52	5.93	–
Proteasome subunit alpha type-2	3457	1924	1058	–	–	0.53	4.39	–
Vitronectin	1831	1169	648	–	–	0.70	2.55	–
Parathyroid hormone-related protein	102	74	45	–	–	0.76	2.19	–
Platelet receptor Gi24	7220	4528	2622	–	–	0.62	2.74	–
Neurogenic locus notch homolog protein 3	12232	5959	2264	4.76	0.54	–	–	–
Plexin-B2	72614	47158	32750	–	–	0.61	2.28	–
